Three substances from patent publication US20100249370 (published 2010) can be followed below.

Series [1] in a line: general procedure: hybrid (solid and solution phase) peptide synthesis; CTC resin (fragments with free carboxylic function); Sieber resin (C-terminal fragment); TCTU/6-Cl-HOBt/DIEA. The conditions noted are these: late stage modification step.
A short description of series [2]: general procedure: hybrid (solid and solution phase) peptide synthesis; CTC resin; TCTU/6-Cl-HOBt/DIEA. The conditions noted are these: whole synthesis, scale 80 g CTC resin, 0.66 mmol/g.
The nature of series [3]: general procedure: hybrid (solid and solution phase) peptide synthesis; Sieber resin; TCTU/6-Cl-HOBt/DIEA. The conditions noted are these: whole synthesis, scale 150 g Sieber resin, 0.55 mmol/g.

Regarding pramlintide, the “final purity (method not given)” value in series [1] is given as 97.5%.
On to “P-Ala-Asn-^15Phe-Leu-Val-His-Ser-^20Ser-Asn-Asn-Phe-Gly-OH (II)”, for which the crude mass in series [2] was found to be 143 g.
In series [3], “H-^25Pro-Ile-Leu-Pro-Pro-^30Thr-Asn-Val-Gly-Ser-^35Asn-Thr-Tyr-NH2 (III)” registered a crude mass of 145.75 g.
